In patent publication US20210087231A1 (UNIVERSITY OF MARYLAND BALTIMORE, published 2021):
No constants are given. Whether binding was seen depends on the method and setting.

Biological target: TLR2-Cer
Assay: FRET-FLIM in HeLa cells expressing the Cer fusion, Cy3-peptide 1 h

binding: no binding (tested: 40 µM)
B1: Cy3-9R34-ΔN (peptide)
peptide: RQIKIWFQNRRMKWKKALRLCLEERD
modifications: Cy3 label at the peptide N-terminus
